Five molecules from the supplement of paper PMC4604168 (melanoma cell lines) can be followed below.

Molecules are shown by their SMILES. This is one part of the list. Many values rest on one well or one pass, so single values are uncertain.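 The apoptosis fraction was the count of cleaved-PARP antibody-stained nuclei relative to all DNA-stained nuclei, imaged in 1,536-well plates. Screening doses were set so most cells survived, and baseline and induced cleaved-PARP levels vary greatly across cell lines.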

The assay concerns UACC62. Briefly: cleaved PARP positive nuclei fraction relative to DMSO control; melanoma cells; higher = more apoptosis. The following applies: library dose: low library concentration; 72 h.
As to `COc1ccc(C2=N[C@@H](c3ccc(Cl)cc3)[C@@H](c3ccc(Cl)cc3)N2C(=O)N2CCNC(=O)C2)c(OC(C)C)c1` [Nutlin-3] + Nc1nc(F)nc2c1ncn2[C@@H]1O[C@H](CO)[C@@H](O)[C@@H]1O [fludarabine] (first compound 0.1 µM, partner dose 0.2 µM), the “cleaved PARP positive nuclei fraction” value is 345%.

Turning to `CCN(CC)CCNC(=O)c1c(C)[nH]c(/C=C2\C(=O)Nc3ccc(F)cc32)c1C` [sunitinib] + C=C(c1ccc(C(=O)O)cc1)c1cc2c(cc1C)C(C)(C)CCC2(C)C [Bexarotene] (first compound 0.4 µM, partner dose 2 µM), the “cleaved PARP positive nuclei fraction” value was 229%.

Turning to `NC(=O)c1ccc(N(C(N)=O)c2c(F)cccc2F)nc1-c1ccc(F)cc1F` + Cn1nnc2c(C(N)=O)ncn2c1=O [temozolomide] (first compound 0.4 µM, partner dose 2 µM), the “cleaved PARP positive nuclei fraction” value was found to be 120%.

Consider `CC1(C)CCC(c2ccc(Cl)cc2)=C(CN2CCN(c3ccc(C(=O)NS(=O)(=O)c4ccc(N[C@H](CCN5CCOCC5)CSc5ccccc5)c(S(=O)(=O)C(F)(F)F)c4)cc3)CC2)C1` + CN(c1ncccc1CNc1nc(Nc2ccc3c(c2)CC(=O)N3)ncc1C(F)(F)F)S(C)(=O)=O [PF562271] (first compound 0.4 µM, partner dose 0.08 µM), for which the “cleaved PARP positive nuclei fraction” value stood at 110%.

Take `Cn1sc(=O)n(Cc2ccccc2)c1=O` + CC(C)C[C@H](NC(=O)[C@H](Cc1ccccc1)NC(=O)c1cnccn1)B(O)O [Bortezomib] (first compound 0.4 µM, partner dose 0.001 µM): the “cleaved PARP positive nuclei fraction” value worked out at 56.7%.
